The record followed here is PubChem BioAssay AID1632 (University of Pittsburgh Molecular Library Screening Center, 2009).

In the assay the test system is hexokinase 1 [Trypanosoma brucei]. As to the kind of experiment: T. brucei hexokinase 1 inhibitor potency, dose response, biochemical, IC50 (AID 1632). As to conditions: recombinant TbHK1 enzyme assay, absorbance read-out, at 100 µM, stronger effect = higher value.

The list shows a part of the results. Shown are side measurements of this screen, not its main read-out; they come without a call.

A word on the inhibition: it is how much of the control response was suppressed. As for `O=c1c2ccccc2sn1-c1nccs1`, the inhibition was 13.4%.
